“And” between values parts separate entries of the source, which are not always exact repeats. Equal entries are not always repeated.
B1: Ig alpha-2 chain C region (protein, UniProt P01877 1-391, looked up)
Immunoglobulin heavy constant …: ASPTSPKVFPLSLDSTPQDGNVVVACLVQGFFPQEPLSVTWSESGQNVTARNFPPSQDASGDLYTTSSQLTLPATQCPDGKSVTCHVKHYTNSSQDVTVPCRVPPPPPCCHPRLSLHRPALEDLLLGSEANLTCTLTGLRDASGATFTWTPSSGKSAVQGPPERDLCGCYSVSSVLPGCAQPWNHGETFTCTAAHPELKTPLTANITKSGNTFRPEVHLLPPPSEELALNELVTLTCLARGFSPKDVLVRWLQGSQELPREKYLTWASRQEPSQGTTTYAVTSILRVAAEDWKKGETFSCMVGHEALPLAFTQKTIDRMAGSCCVADWQMPPPYVVLDLPQETLEEETPGANLWPTTITFLTLFLLSLFYSTALTVTSVRGPSGKREGPQY
B2: Ig alpha-1 chain C region (protein, UniProt P01876 1-398, looked up)
Immunoglobulin heavy constant …: ASPTSPKVFPLSLCSTQPDGNVVIACLVQGFFPQEPLSVTWSESGQGVTARNFPPSQDASGDLYTTSSQLTLPATQCLAGKSVTCHVKHYTNPSQDVTVPCPVPSTPPTPSPSTPPTPSPSCCHPRLSLHRPALEDLLLGSEANLTCTLTGLRDASGVTFTWTPSSGKSAVQGPPERDLCGCYSVSSVLPGCAEPWNHGKTFTCTAAYPESKTPLTATLSKSGNTFRPEVHLLPPPSEELALNELVTLTCLARGFSPKDVLVRWLQGSQELPREKYLTWASRQEPSQGTTTFAVTSILRVAAEDWKKGDTFSCMVGHEALPLAFTQKTIDRLADWQMPPPYVVLDLPQETLEEETPGANLWPTTITFLTLFLLSLFYSTALTVTSVRGPSGNREGPQY
B3: Ig gamma-4 chain C region (protein, UniProt P01861 1-396, looked up)
Immunoglobulin heavy constant …: ASTKGPSVFPLAPCSRSTSESTAALGCLVKDYFPEPVTVSWNSGALTSGVHTFPAVLQSSGLYSLSSVVTVPSSSLGTKTYTCNVDHKPSNTKVDKRVESKYGPPCPSCPAPEFLGGPSVFLFPPKPKDTLMISRTPEVTCVVVDVSQEDPEVQFNWYVDGVEVHNAKTKPREEQFNSTYRVVSVLTVLHQDWLNGKEYKCKVSNKGLPSSIEKTISKAKGQPREPQVYTLPPSQEEMTKNQVSLTCLVKGFYPSDIAVEWESNGQPENNYKTTPPVLDSDGSFFLYSRLTVDKSRWQEGNVFSCSVMHEALHNHYTQKSLSLSLELQLEESCAEAQDGELDGLWTTITIFITLFLLSVCYSATVTFFKVKWIFSSVVDLKQTIVPDYRNMIRQGA
modifications: oxidized
B4: Galectin-3-binding protein precursor (protein, UniProt Q08380 19-585, looked up)
pro-form: VNDGDMRLADGGATNQGRVEIFYRGQWGTVCDNLWDLTDASVVCRALGFENATQALGRAAFGQGSGPIMLDEVQCTGTEASLADCKSLGWLKSNCRHERDAGVVCTNETRSTHTLDLSRELSEALGQIFDSQRGCDLSISVNVQGEDALGFCGHTVILTANLEAQALWKEPGSNVTMSVDAECVPMVRDLLRYFYSRRIDITLSSVKCFHKLASAYGARQLQGYCASLFAILLPQDPSFQMPLDLYAYAVATGDALLEKLCLQFLAWNFEALTQAEAWPSVPTDLLQLLLPRSDLAVPSELALLKAVDTWSWGERASHEEVEGLVEKIRFPMMLPEELFELQFNLSLYWSHEALFQKKTLQALEFHTVPFQLLARYKGLNLTEDTYKPRIYTSPTWSAFVTDSSWSARKSQLVYQSRRGPLVKYSSDYFQAPSDYRYYPYQSFQTPQHPSFLFQDKRVSWSLVYLPTIQSCWNYGFSCSSDELPVLGLTKSGGSDRTIAYENKALMLCEGLFVADVTDFEGWKAAIPSALDTNSSKSTSSFPCPAGHFNGFRTVIRPFYLTNSSGVD
modifications: pro-form
B5: Ig gamma-2 chain C region (protein, UniProt P01859 1-395, looked up)
Immunoglobulin heavy constant …: ASTKGPSVFPLAPCSRSTSESTAALGCLVKDYFPEPVTVSWNSGALTSGVHTFPAVLQSSGLYSLSSVVTVPSSNFGTQTYTCNVDHKPSNTKVDKTVERKCCVECPPCPAPPVAGPSVFLFPPKPKDTLMISRTPEVTCVVVDVSHEDPEVQFNWYVDGVEVHNAKTKPREEQFNSTFRVVSVLTVVHQDWLNGKEYKCKVSNKGLPAPIEKTISKTKGQPREPQVYTLPPSREEMTKNQVSLTCLVKGFYPSDISVEWESNGQPENNYKTTPPMLDSDGSFFLYSKLTVDKSRWQQGNVFSCSVMHEALHNHYTQKSLSLSPELQLEESCAEAQDGELDGLWTTITIFITLFLLSVCYSATITFFKVKWIFSSVVDLKQTIVPDYRNMIRQGA
B6: Hook homolog 2 (protein, UniProt Q96ED9 1-719, looked up)
Protein Hook homolog 2: MSVDKAELCGSLLTWLQTFHVPSPCASPQDLSSGLAVAYVLNQIDPSWFNEAWLQGISEDPGPNWKLKVSNLKMVLRSLVEYSQDVLAHPVSEEHLPDVSLIGEFSDPAELGKLLQLVLGCAISCEKKQDHIQRIMTLEESVQHVVMEAIQELMTKDTPDSLSPETYGNFDSQSRRYYFLSEEAEEGDELQQRCLDLERQLMLLSEEKQSLAQENAGLRERMGRPEGEGTPGLTAKKLLLLQSQLEQLQEENFRLESGREDERLRCAELEREVAELQHRNQALTSLAQEAQALKDEMDELRQSSERAGQLEATLTSCRRRLGELRELRRQVRQLEERNAGHAERTRQLEDELRRAGSLRAQLEAQRRQVQELQGQRQEEAMKAEKWLFECRNLEEKYESVTKEKERLLAERDSLREANEELRCAQLQPRGLTQADPSLDPTSTPVDNLAAEILPAELRETLLRLQLENKRLCRQEAADRERQEELQRHLEDANRARHGLETQHRLNQQQLSELRAQVEDLQKALQEQGGKTEDAISILLKRKLEEHLQKLHEADLELQRKREYIEELEPPTDSSTARRIEELQHNLQKKDADLRAMEERYRRYVDKARMVMQTMEPKQRPAAGAPPELHSLRTQLRERDVRIRHLEMDFEKSRSQREQEEKLLISAWYNMGMALQQRAGEERAPAHAQSFLAQQRLATNSRRGPLGRLASLNLRPTDKH
B7: Ig gamma-3 chain C region (protein, UniProt P01860 1-446, looked up)
Immunoglobulin heavy constant …: ASTKGPSVFPLAPCSRSTSGGTAALGCLVKDYFPEPVTVSWNSGALTSGVHTFPAVLQSSGLYSLSSVVTVPSSSLGTQTYTCNVNHKPSNTKVDKRVELKTPLGDTTHTCPRCPEPKSCDTPPPCPRCPEPKSCDTPPPCPRCPEPKSCDTPPPCPRCPAPELLGGPSVFLFPPKPKDTLMISRTPEVTCVVVDVSHEDPEVQFKWYVDGVEVHNAKTKPREEQYNSTFRVVSVLTVLHQDWLNGKEYKCKVSNKALPAPIEKTISKTKGQPREPQVYTLPPSREEMTKNQVSLTCLVKGFYPSDIAVEWESSGQPENNYNTTPPMLDSDGSFFLYSKLTVDKSRWQQGNIFSCSVMHEALHNRFTQKSLSLSPELQLEESCAEAQDGELDGLWTTITIFITLFLLSVCYSATVTFFKVKWIFSSVVDLKQTIIPDYRNMIGQGA
modifications: oxidized

What follows are molecules tested on carbonylated plasma proteins (assay: iTRAQ and MALDI/TOF/TOF quantitative comparison of avidin-selected carbonylated proteins, breast cancer patients vs controls (Table 8)). Conditions: avidin-selected carbonylated protein in plasma, breast cancer patient vs matched control, iTRAQ; repeated lines of a protein = different donors; negative = lower in cancer.
Parameters: species or system Homo sapiens

In order of rising “Breast cancer/control (fold change)” value:
1. B3  −2.8 fold change
2. B1  1.6 fold change
3. B5  1.9 fold change
4. B7  2.4 fold change
5. B6  2.6 fold change
6. B4  9.0 fold change

B2 was tested, and the “Breast cancer/control (fold change)” value was 2.6 fold change and 1.8 fold change.

From patent US9134318B2, “Detection of oxidized polypeptides” (Purdue Research Foundation, priority 2009, dated 2015)
